Test results as given in PubChem BioAssay AID248 (DTP/NCI, 2004).
The list shows only some results of the screen, not a fair sample: it is rich in T/C values a quarter to a half above the control, in often repeated tests (any T/C) and in doses without a T/C. Other doses and runs of a compound stand elsewhere. T/C gives the treated animals as a percentage of the vehicle group. Some entries give survivors of the animals treated and no T/C: the source holds a T/C of zero for them, seemingly a mark for toxic or unscored doses. Some survivor counts are full or nearly so, which does not show that the dose was tolerated: the source hardly ever lists a survival T/C far under the control, and the zero likely stands for such cases as well. Survivors were counted at the toxicity check, usually on the fifth day, unless a day is given; later deaths do not show. Schedule codes are those of the source, taken here to give the interval after Q, in days (D) or hours (H), and the number of doses after X. Some schedules carry Z or #; the key to these is not given. Some molecules as drawn cover several salts, stereoisomers or complexes of the source; a dose is that of the sample tested. Some doses were run more than once; the values are given in rising order. Where survival is the endpoint, this PubChem deposit counts one and a half times the control or more as active, and values a quarter to a half above the control carry no call in these data; other NCI protocols may use other cut-offs. Some T/C values carry the count of animals alive at the toxicity check (mostly the fifth day); without a count, all were alive then.

System: L1210 leukemia ip in BDF1 mice, survival T/C
Experiment: NCI In Vivo Anticancer Drug Screen. Data for tumor model L1210 Leukemia (intraperitoneal) in B6D2F1 (BDF1) mice
Conditions: T/C endpoint: mean survival time, higher T/C = longer survival
[1] = dose: 200.0 mg/kg/injection, schedule: Q04DX003 (ip), vehicle: Klucel (hydroxypropylcellulose) (HPC)
[2] = dose: 400.0 mg/kg/injection, schedule: Q04DX003 (ip), vehicle: Klucel (hydroxypropylcellulose) (HPC)
[3] = dose: 400.0 mg/kg/injection, schedule: Q01DX001 (ip), vehicle: saline
[4] = dose: 400.0 mg/kg/injection, schedule: Q01DX001 (ip), vehicle: saline with Tween-80
[5] = dose: 100.0 mg/kg/injection, schedule: Q01DX009 (ip), vehicle: Klucel (hydroxypropylcellulose) (HPC)
[6] = dose: 200.0 mg/kg/injection, schedule: Q01DX009 (ip), vehicle: Klucel (hydroxypropylcellulose) (HPC)
[7] = dose: 400.0 mg/kg/injection, schedule: Q01DX009 (ip), vehicle: Klucel (hydroxypropylcellulose) (HPC)
[8] = dose: 300.0 mg/kg/injection, schedule: Q01DX001 (ip), vehicle: saline
[9] = dose: 300.0 mg/kg/injection, schedule: Q01DX001 (ip), vehicle: carboxymethylcellulose (CMC)

CC(Br)(C(CC(=O)C1CC1)c1ccccc1)[N+](=O)[O-] (stereo not drawn)
survivor count (dose: 25.0 mg/kg/injection, schedule: Q01DX009 (ip), vehicle: other): 6 of 6
survivor count (dose: 100.0 mg/kg/injection, schedule: Q01DX009 (ip), vehicle: other): 3 of 6
survivor count (dose: 200.0 mg/kg/injection, schedule: Q04DX003 (ip), vehicle: other): 2 of 6
survivor count (dose: 400.0 mg/kg/injection, schedule: Q04DX003 (ip), vehicle: other): 0 of 6

Oc1cc(N2CC2)c(O)cc1N1CC1
T/C (dose: 0.6 mg/kg/injection, schedule: Q01DX009 (ip), vehicle: saline): 138 % of control
T/C (dose: 1.0 mg/kg/injection, schedule: Q01DX009 (ip), vehicle: saline): 131 % of control [5 of 6 alive]
survivor count (dose: 1.25 mg/kg/injection, schedule: Q01DX001 (ip), vehicle: saline): 4 of 6
survivor count (dose: 1.25 mg/kg/injection, schedule: Q01DX009 (ip), vehicle: saline): 6 of 6
T/C (dose: 2.0 mg/kg/injection, schedule: Q01DX009 (ip), vehicle: saline): 149 % of control
survivor count (dose: 2.5 mg/kg/injection, schedule: Q01DX001 (ip), vehicle: saline): 4 of 6
survivor count (dose: 2.5 mg/kg/injection, schedule: Q01DX009 (ip), vehicle: saline): 3 of 6
survivor count (dose: 5.0 mg/kg/injection, schedule: Q01DX001 (ip), vehicle: saline): 6 of 6
survivor count (dose: 5.0 mg/kg/injection, schedule: Q01DX009 (ip), vehicle: saline): 2 of 6
survivor count (dose: 10.0 mg/kg/injection, schedule: Q01DX001 (ip), vehicle: carboxymethylcellulose (CMC)): 4 of 4
survivor count (dose: 10.0 mg/kg/injection, schedule: Q01DX001 (ip), vehicle: saline): 1 of 6
survivor count (dose: 20.0 mg/kg/injection, schedule: Q01DX001 (ip), vehicle: carboxymethylcellulose (CMC)): 2 of 4
survivor count (dose: 40.0 mg/kg/injection, schedule: Q01DX001 (ip), vehicle: carboxymethylcellulose (CMC)): 2 of 4
survivor count (dose: 80.0 mg/kg/injection, schedule: Q01DX001 (ip), vehicle: carboxymethylcellulose (CMC)): 1 of 4
survivor count (dose: 100.0 mg/kg/injection, schedule: Q01DX001 (ip), vehicle: carboxymethylcellulose (CMC)): 0 of 4
survivor count (dose: 200.0 mg/kg/injection, schedule: Q01DX001 (ip), vehicle: carboxymethylcellulose (CMC)): 0 of 4
survivor count (dose: 400.0 mg/kg/injection, schedule: Q01DX001 (ip), vehicle: carboxymethylcellulose (CMC)): 0 of 4

O=P(O)(O)C(Cl)(Cl)Cl
survivor count (dose: 400.0 mg/kg/injection, schedule: Q04DX002 (ip), vehicle: saline): 3 of 3

CCCCOc1ccc(Nc2c3ccccc3nc3ccccc23)cc1
survivor count [1]: 1 of 6
survivor count [2]: 1 of 6

O=C(Nc1ccc(CC2=NCCN2)cc1)c1ccc(C(=O)Nc2ccc(CC3=NCCN3)cc2)cc1
survivor count (dose: 15.0 mg/kg/injection, schedule: Q01DX Z (ip), vehicle: saline): 0 of 6
survivor count (dose: 30.0 mg/kg/injection, schedule: Q01DX Z (ip), vehicle: saline): 0 of 6
survivor count (dose: 60.0 mg/kg/injection, schedule: Q01DX Z (ip), vehicle: saline): 0 of 6
survivor count (dose: 120.0 mg/kg/injection, schedule: Q01DX Z (ip), vehicle: saline): 0 of 6

N#CCCNC(=O)N(CCC#N)N=O
T/C (dose: 50.0 mg/kg/injection, schedule: Q01DX Z (ip), vehicle: carboxymethylcellulose (CMC)): 134 and 147 % of control
T/C (dose: 100.0 mg/kg/injection, schedule: Q01DX Z (ip), vehicle: carboxymethylcellulose (CMC)): 139 % of control
T/C (dose: 150.0 mg/kg/injection, schedule: Q01DX Z (ip), vehicle: carboxymethylcellulose (CMC)): 128 % of control
survivor count (dose: 250.0 mg/kg/injection, schedule: Q01DX Z (ip), vehicle: carboxymethylcellulose (CMC)): 5 of 6
survivor count (dose: 300.0 mg/kg/injection, schedule: Q01DX Z (ip), vehicle: carboxymethylcellulose (CMC)): 1 of 6

c1ccc2[nH]c(-c3c[nH]c4ccccc34)cc2c1
survivor count [3]: 0 of 4

CCCCCSc1nccc(N)n1
survivor count [4]: 0 of 6

c1ccc(C2C(c3ccccc3)N2CCNC2=NCCN2)cc1 (stereo not drawn)
survivor count [5]: 3 of 6
survivor count [6]: 0 of 6
survivor count [7]: 0 of 6

C#CC(OC(=O)NC(CCSC)C(=O)OC)(c1ccccc1)c1ccccc1 (stereo not drawn)
survivor count [4]: 2 of 3

CCc1nc2ccccc2[nH]1
survivor count (dose: 400.0 mg/kg/injection, schedule: Q04DX003 (ip), vehicle: saline with Tween-80): 2 of 6

COc1cc2c(cc1OC)C(CC1=C(c3ccccc3)CN3CCc4cc(OC)c(OC)cc4C3C1)NCC2 (stereo not drawn)
survivor count [8]: 1 of 6 and 2 of 6

CCCCCCCCCCC[CH2][Hg][Cl]
survivor count (dose: 12.5 mg/kg/injection, schedule: Q04DX003 (ip), vehicle: Klucel (hydroxypropylcellulose) (HPC)): 1 of 6
survivor count (dose: 25.0 mg/kg/injection, schedule: Q04DX003 (ip), vehicle: Klucel (hydroxypropylcellulose) (HPC)): 0 of 6
survivor count (dose: 100.0 mg/kg/injection, schedule: Q04DX003 (ip), vehicle: Klucel (hydroxypropylcellulose) (HPC)): 1 of 6
survivor count [1]: 1 of 6
survivor count [2]: 0 of 6

CCN(CC)CCC(O)c1ccc2c(c1)[nH]c1ccccc12 (stereo not drawn)
survivor count [9]: 2 of 6

O=C(Nc1ccc([N+](=O)[O-])cc1Cl)c1cc(Cl)ccc1O
survivor count (dose: 400.0 mg/kg/injection, schedule: Q04DX002 (ip), vehicle: Klucel (hydroxypropylcellulose) (HPC)): 3 of 3

Cc1nc(N)sc1N=Nc1ccccc1Br
survivor count [8]: 0 of 6

CCC1c2ccc3cc(OC)ccc3c2C(=O)C1CC(=O)O (stereo not drawn)
survivor count [3]: 0 of 6

O=C(O)c1cc2oc3ccccc3c2cc1O
survivor count [7]: 0 of 6

CN(CC(O)CN)c1ccccc1 (stereo not drawn)
survivor count [3]: 0 of 4

CCN(CC)CCCC(C)Nc1cc(N)nc2nc(-c3ccc(Cl)cc3)cnc12 (stereo not drawn)
survivor count [8]: 1 of 6

O=S(=O)(/C=C/c1ccccc1)c1ccc(F)cc1
survivor count (dose: 200.0 mg/kg/injection, schedule: Q01DX009 (ip), vehicle: acetone): 6 of 6
survivor count (dose: 400.0 mg/kg/injection, schedule: Q01DX009 (ip), vehicle: acetone): 4 of 6

CCOC(=O)/C(C#N)=C(/C)C1CC1
survivor count (dose: 50.0 mg/kg/injection, schedule: Q01DX009 (ip), vehicle: Klucel (hydroxypropylcellulose) (HPC)): 1 of 6
survivor count [5]: 0 of 6
survivor count [6]: 0 of 6
survivor count [9]: 0 of 6

COC(C#N)C(=N)CC#N (stereo not drawn)
survivor count (dose: 38.0 mg/kg/injection, schedule: Q01DX001 (ip), vehicle: saline): 0 of 6
survivor count (dose: 75.0 mg/kg/injection, schedule: Q01DX001 (ip), vehicle: saline): 0 of 6
survivor count (dose: 150.0 mg/kg/injection, schedule: Q01DX001 (ip), vehicle: saline): 0 of 6
survivor count [8]: 0 of 6

Cc1cc2cc3cccc[n+]3cc2c2ccccc12
survivor count (dose: 8.0 mg/kg/injection, schedule: Q01DX Z (ip), vehicle: carboxymethylcellulose (CMC)): 6 of 6
survivor count (dose: 16.0 mg/kg/injection, schedule: Q01DX Z (ip), vehicle: carboxymethylcellulose (CMC)): 0 of 6
survivor count (dose: 32.0 mg/kg/injection, schedule: Q01DX Z (ip), vehicle: carboxymethylcellulose (CMC)): 0 of 6
survivor count (dose: 64.0 mg/kg/injection, schedule: Q01DX Z (ip), vehicle: carboxymethylcellulose (CMC)): 0 of 6

CN(c1ccccc1)S(=O)(=O)c1ccc(NC(=O)CBr)cc1
survivor count (dose: 150.0 mg/kg/injection, schedule: Q01DX001 (ip), vehicle: Klucel (hydroxypropylcellulose) (HPC)): 0 of 6
